PubChem BioAssay AID1259424 – University of Nebraska Medical Center | 2018
Aim: 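Rank knockdowns across the genome by resemblance to the KSR1 depletion profile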 (primary screen). Cells: human HCT116 colon cancer cells. Reagents: siRNA pool against human genes, 50 nM. Read-out: 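Six signature mRNAs by branched-DNA multiplex assay, scaled to two housekeeping genes and non-targeting median, log2; matched to mean KSR1 knockdown profile by Pearson correlation and euclidean distance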. Direction: mean correlation with KSR1 profile and KSR1 correlation: higher = expression change more like KSR1 knockdown; mean distance from KSR1 profile: higher = expression change less like KSR1 knockdown.
In all, the deposit lists about 14,000 reagents; this is an unselected part. 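Higher correlation or smaller distance means closer resemblance to KSR1 loss; control wells, including KSR1 knockdowns, recur on many plates.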 Not stated in the record: the time to read-out.

no.	Gene	mean correlation with KSR1 profile	mean distance from KSR1 profile	KSR1 correlation, replicate 1	KSR1 correlation, replicate 2	KSR1 correlation, replicate 3
1	FZD8 (frizzled class receptor 8)	0.471	1.45	0.249	0.641	0.335
2	ATP5MJ (ATP synthase membrane subunit j)	-0.234	1.44	-0.266	0.184	-0.552
3	SIRT6 (sirtuin 6)	-0.229	3.08	-0.152	-0.298	-0.331
4	ATRAID (all-trans retinoic acid induced differentiation factor)	-0.12	2.62	-0.0385	-0.44	0.17
5	RPS6KA1 (ribosomal protein S6 kinase A1)	0.317	1.61	0.556	0.0409	-0.171
6	NLRX1 (NLR family member X1)	0.355	2.16	0.4	0.681	-0.0298
7	CLINT1 (clathrin interactor 1)	-0.613	4.45	-0.581	-0.626	-0.413
8	ARPP21 (cAMP regulated phosphoprotein 21)	-0.371	2.8	0.0197	-0.499	-0.548
9	IFNK (interferon kappa)	-0.583	4.51	-0.468	-0.512	-0.655
10	GABRB1 (gamma-aminobutyric acid type A receptor subunit beta1)	0.188	2.62	0.335	0.153	-0.0302
11	GCHFR (GTP cyclohydrolase I feedback regulator)	-0.447	2.66	-0.527	-0.54	-0.434
12	SCNN1B (sodium channel epithelial 1 subunit beta)	0.148	1.75	0.427	0.113	-0.0445
13	FADS1 (fatty acid desaturase 1)	-0.0436	2.68	-0.132	-0.103	-0.00109
14	PFKFB2 (6-phosphofructo-2-kinase/fructose-2,6-biphosphatase 2)	0.328	3.17	0.564	0.371	-0.000439
15	WBP1 (WW domain binding protein 1)	-0.345	3.96	0.092	-0.699	-0.569
16	EDF1 (endothelial differentiation related factor 1)	-0.906	3.84	-0.811	-0.911	-0.839
17	DIAPH2 (diaphanous related formin 2)	-0.251	1.86	-0.113	-0.552	-0.342
18	CES1 (carboxylesterase 1)	0.402	2.52	0.0487	0.452	0.557
19	ENTR1 (endosome associated trafficking regulator 1)	-0.379	2.83	-0.258	-0.449	-0.493
20	ELP3 (elongator acetyltransferase complex subunit 3)	0.19	2.88	0.285	0.0763	0.123
21	MTERF3 (mitochondrial transcription termination factor 3)	0.0669	1.4	0.0136	0.0523	0.134
22	ATCAY (ATCAY kinesin light chain interacting caytaxin)	-0.0393	2.44	-0.0194	-0.0195	-0.35
23	S100A3 (S100 calcium binding protein A3)	0.545	1.05	0.0306	0.421	0.436
24	NTN4 (netrin 4)	0.00692	2.61	-0.0225	-0.0789	0.0509
25	SHQ1 (SHQ1, H/ACA ribonucleoprotein assembly factor)	-0.372	1.52	-0.457	-0.249	-0.394
26	ADGRB1 (adhesion G protein-coupled receptor B1)	0.607	1.62	0.567	0.672	0.564
27	FA2H (fatty acid 2-hydroxylase)	-0.527	2.62	-0.651	-0.64	-0.573
28	MRPS34 (mitochondrial ribosomal protein S34)	0.312	2.32	0.2	0.284	0.246
29	DNAJC28 (DnaJ heat shock protein family (Hsp40) member C28)	-0.278	1.17	0.0313	-0.522	-0.703
30	SAR1A (secretion associated Ras related GTPase 1A)	0.232	1.93	0.282	0.182	0.284
31	SCYL1 (SCY1 like pseudokinase 1)	0.169	3.31	0.485	0.294	-0.273

Next part, starting with the last 7 of the part before.
no.	Gene	mean correlation with KSR1 profile	mean distance from KSR1 profile	KSR1 correlation, replicate 1	KSR1 correlation, replicate 2	KSR1 correlation, replicate 3
25	SHQ1 (SHQ1, H/ACA ribonucleoprotein assembly factor)	-0.372	1.52	-0.457	-0.249	-0.394
26	ADGRB1 (adhesion G protein-coupled receptor B1)	0.607	1.62	0.567	0.672	0.564
27	FA2H (fatty acid 2-hydroxylase)	-0.527	2.62	-0.651	-0.64	-0.573
28	MRPS34 (mitochondrial ribosomal protein S34)	0.312	2.32	0.2	0.284	0.246
29	DNAJC28 (DnaJ heat shock protein family (Hsp40) member C28)	-0.278	1.17	0.0313	-0.522	-0.703
30	SAR1A (secretion associated Ras related GTPase 1A)	0.232	1.93	0.282	0.182	0.284
31	SCYL1 (SCY1 like pseudokinase 1)	0.169	3.31	0.485	0.294	-0.273
32	BRD3 (bromodomain containing 3)	-0.085	3.81	-0.234	-0.231	0.135
33	FLI1 (Fli-1 proto-oncogene, ETS transcription factor)	-0.0957	2.27	0.0195	-0.412	-0.539
34	TRPV2	-0.416	2.76	-0.441	-0.49	-0.252
35	VASP (vasodilator stimulated phosphoprotein)	0.351	2.54	0.545	0.303	0.126
36	ZFP64 (ZFP64 zinc finger protein)	-0.547	4.54	-0.531	-0.467	-0.509
37	PIH1D1 (PIH1 domain containing 1)	-0.323	3.58	-0.117	-0.342	-0.421
38	MRM2 (mitochondrial rRNA methyltransferase 2)	-0.0906	2.13	-0.427	-0.373	-0.172
39	UBR1 (ubiquitin protein ligase E3 component n-recognin 1)	0.139	1.74	-0.0875	0.147	-0.00264
40	H4C13 (H4 clustered histone 13)	0.692	1.29	0.588	0.634	0.724
41	LDB3 (LIM domain binding 3)	-0.829	1.85	-0.651	-0.847	-0.679
42	EPCAM (epithelial cell adhesion molecule)	-0.496	2.39	-0.609	-0.546	-0.386
43	AGFG2 (ArfGAP with FG repeats 2)	0.041	4.39	-0.236	0.24	-0.12
44	MYO6 (myosin VI)	-0.335	1.88	-0.174	-0.355	-0.463
45	FBXW4P1 (F-box and WD repeat domain containing 4 pseudogene 1)	0.304	2.16	0.213	0.325	0.232
46	FAM204A (family with sequence similarity 204 member A)	0.0856	3.42	0.126	0.124	0.138
47	TXNDC17 (thioredoxin domain containing 17)	0.418	1.89	0.379	0.264	0.305
48	RBPJ	-0.119	2.84	-0.151	-0.227	-0.065
49	DSCR8 (Down syndrome critical region 8)	0.498	2.31	0.493	0.312	0.339
50	ENOPH1 (enolase-phosphatase 1)	-0.277	3.17	-0.323	-0.273	-0.345
